Measurements as given in patent US20250084044A1, “PROTOPORPHYRINOGEN OXIDASE INHIBITORS” (Enko Chem, Inc., priority 2022, published 2025).
Some of these results come from one statement about several compounds together.

What follows are compounds tested against T1, mutant ΔG210-AmPPO (Amaranthus tuberculatus, UniProt Q0NZW9, DEL211-211, form not given). Conditions: Example 17b; read-out: IC50 in the AG210 PPO in vitro assay.
T1 sequence (Q0NZW9 with tags, fused parts or gaps DEL211-211): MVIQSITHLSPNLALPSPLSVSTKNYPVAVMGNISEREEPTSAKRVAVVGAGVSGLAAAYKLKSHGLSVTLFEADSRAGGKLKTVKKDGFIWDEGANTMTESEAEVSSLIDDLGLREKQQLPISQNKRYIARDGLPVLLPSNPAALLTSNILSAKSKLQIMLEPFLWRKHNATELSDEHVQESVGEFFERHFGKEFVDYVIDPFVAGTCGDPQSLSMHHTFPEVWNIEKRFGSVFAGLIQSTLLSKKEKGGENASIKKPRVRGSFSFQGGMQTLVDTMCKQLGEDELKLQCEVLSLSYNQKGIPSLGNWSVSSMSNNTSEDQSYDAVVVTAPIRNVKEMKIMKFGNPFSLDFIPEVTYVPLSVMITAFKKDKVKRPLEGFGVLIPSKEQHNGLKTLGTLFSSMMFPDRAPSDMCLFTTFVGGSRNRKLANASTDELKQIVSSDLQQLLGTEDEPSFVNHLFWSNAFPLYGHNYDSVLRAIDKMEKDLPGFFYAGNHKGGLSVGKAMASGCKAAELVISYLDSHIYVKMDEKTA
Assay type: biochemical, Amaranthus tuberculantum

| SMILES | IC50 [nM] |
| --- | --- |
| NC(=O)CN1C(=O)C(F)(F)Oc2cc(F)c(-c3c(F)c(F)c(F)c(F)c3F)cc21 [Compound 83, 2-(2,2,7-trifluoro-3-oxo-6-(perfluorophenyl)-2,3-dihydro-4H-benzo[b][1,4]oxazin-4-yl)acetamide] | < 1000 |
| COC(=O)CN(C)C(=O)CN1C(=O)C(F)(F)Oc2cc(F)c(-c3c(F)c(F)c(F)c(F)c3F)cc21 [Compound 84, methyl N-methyl-N-(2-(2,2,7-trifluoro-3-oxo-6-(perfluorophenyl)-2,3-dihydro-4H-benzo[b][1,4]oxazin-4-yl)acetyl)glycinate] | < 100 |
| CN(CC(=O)O)C(=O)CN1C(=O)C(F)(F)Oc2cc(F)c(-c3c(F)c(F)c(F)c(F)c3F)cc21 [Compound 85, N-methyl-N-(2-(2,2,7-trifluoro-3-oxo-6-(perfluorophenyl)-2,3-dihydro-4H-benzo[b][1,4]oxazin-4-yl)acetyl)glycine] | < 1000 |
| COC(=O)C1CN(C(=O)CN2C(=O)C(F)(F)Oc3cc(F)c(-c4c(F)c(F)c(F)c(F)c4F)cc32)C1 [Compound 86, methyl 1-(2-(2,2,7-trifluoro-3-oxo-6-(perfluorophenyl)-2,3-dihydro-4H-benzo[b][1,4]oxazin-4-yl)acetyl)azetidine-3-carboxylate] | < 100 |
| O=C(O)C1CN(C(=O)CN2C(=O)C(F)(F)Oc3cc(F)c(-c4c(F)c(F)c(F)c(F)c4F)cc32)C1 [Compound 87, 1-(2-(2,2,7-trifluoro-3-oxo-6-(perfluorophenyl)-2,3-dihydro-4H-benzo[b][1,4]oxazin-4-yl)acetyl)azetidine-3-carboxylic acid] | < 1000 |
| COC(=O)C1CCN(C(=O)CN2C(=O)C(F)(F)Oc3cc(F)c(-c4c(F)c(F)c(F)c(F)c4F)cc32)CC1 [Compound 88, methyl 1-(2-(2,2,7-trifluoro-3-oxo-6-(perfluorophenyl)-2,3-dihydro-4H-benzo[b][1,4]oxazin-4-yl)acetyl)piperidine-4-carboxylate] | < 100 |
| O=C(O)C1CCN(C(=O)CN2C(=O)C(F)(F)Oc3cc(F)c(-c4c(F)c(F)c(F)c(F)c4F)cc32)CC1 [Compound 89, 1-(2-(2,2,7-trifluoro-3-oxo-6-(perfluorophenyl)-2,3-dihydro-4H-benzo[b][1,4]oxazin-4-yl)acetyl)piperidine-4-carboxylic acid] | < 100 |
| CN(C)C(=O)CN1C(=O)C(F)(F)Oc2cc(F)c(-c3c(F)c(F)c(F)c(F)c3F)cc21 [Compound 90, N,N-dimethyl-2-(2,2,7-trifluoro-3-oxo-6-(perfluorophenyl)-2,3-dihydro-4H-benzo[b][1,4]oxazin-4-yl)acetamide] | < 1000 |
| COC(=O)CNC(=O)CN1C(=O)C(F)(F)Oc2cc(F)c(-c3c(F)c(F)c(F)c(F)c3F)cc21 [Compound 91, methyl (2-(2,2,7-trifluoro-3-oxo-6-(perfluorophenyl)-2,3-dihydro-4H-benzo[b][1,4]oxazin-4-yl)acetyl)glycinate] | < 100 |
| O=C(O)CNC(=O)CN1C(=O)C(F)(F)Oc2cc(F)c(-c3c(F)c(F)c(F)c(F)c3F)cc21 [Compound 92, (2-(2,2,7-trifluoro-3-oxo-6-(perfluorophenyl)-2,3-dihydro-4H-benzo[b][1,4]oxazin-4-yl)acetyl)glycine] | < 1000 |
| CN(C)S(=O)(=O)NC(=O)CN1C(=O)C(F)(F)Oc2cc(F)c(-c3c(F)cc(F)c(F)c3F)cc21 [Compound 93, N-(N,N-dimethylsulfamoyl)-2-(2,2,7-trifluoro-3-oxo-6-(2,3,4,6-tetrafluorophenyl)-2,3-dihydro-4H-benzo[b][1,4]oxazin-4-yl)acetamide] | < 100 |
| COC(=O)CCNC(=O)CN1C(=O)C(F)(F)Oc2cc(F)c(-c3c(F)c(F)c(F)c(F)c3F)cc21 [Compound 94, methyl 3-(2-(2,2,7-trifluoro-3-oxo-6-(perfluorophenyl)-2,3-dihydro-4H-benzo[b][1,4]oxazin-4-yl)acetamido)propanoate] | < 100 |
| O=C(O)CCNC(=O)CN1C(=O)C(F)(F)Oc2cc(F)c(-c3c(F)c(F)c(F)c(F)c3F)cc21 [Compound 95, 3-(2-(2,2,7-trifluoro-3-oxo-6-(perfluorophenyl)-2,3-dihydro-4H-benzo[b][1,4]oxazin-4-yl)acetamido)propanoic acid] | < 1000 |
| CN(Cc1ccccc1)C(=O)CN1C(=O)C(F)(F)Oc2cc(F)c(-c3c(F)c(F)c(F)c(F)c3F)cc21 [Compound 96, N-benzyl-N-methyl-2-(2,2,7-trifluoro-3-oxo-6-(perfluorophenyl)-2,3-dihydro-4H-benzo[b][1,4]oxazin-4-yl)acetamide] | < 100 |
| CON(C)C(=O)CN1C(=O)C(F)(F)Oc2cc(F)c(-c3c(F)c(F)c(F)c(F)c3F)cc21 [Compound 97, N-methoxy-N-methyl-2-(2,2,7-trifluoro-3-oxo-6-(perfluorophenyl)-2,3-dihydro-4H-benzo[b][1,4]oxazin-4-yl)acetamide] | < 100 |
| CN(O)C(=O)CN1C(=O)C(F)(F)Oc2cc(F)c(-c3c(F)c(F)c(F)c(F)c3F)cc21 [Compound 98, N-hydroxy-N-methyl-2-(2,2,7-trifluoro-3-oxo-6-(perfluorophenyl)-2,3-dihydro-4H-benzo[b][1,4]oxazin-4-yl)acetamide] | < 100 |
| O=C(CN1C(=O)C(F)(F)Oc2cc(F)c(-c3c(F)c(F)c(F)c(F)c3F)cc21)NCc1ccccc1 [Compound 99, N-benzyl-2-(2,2,7-trifluoro-3-oxo-6-(perfluorophenyl)-2,3-dihydro-4H-benzo[b][1,4]oxazin-4-yl)acetamide] | < 100 |
| C=C(CN1C(=O)C(F)(F)Oc2cc(F)c(-c3c(F)c(F)c(F)c(F)c3F)cc21)C(=O)OC [Compound 100, methyl 2-((2,2,7-trifluoro-3-oxo-6-(perfluorophenyl)-2,3-dihydro-4H-benzo[b][1,4]oxazin-4-yl)methyl)acrylate] | < 100 |
| COC(=O)C(=O)CN1C(=O)C(F)(F)Oc2cc(F)c(-c3c(F)c(F)c(F)c(F)c3F)cc21 [Compound 101, methyl 2-oxo-3-(2,2,7-trifluoro-3-oxo-6-(perfluorophenyl)-2,3-dihydro-4H-benzo[b][1,4]oxazin-4-yl)propanoate] | < 1000 |
| O=C(O)C(=O)CN1C(=O)C(F)(F)Oc2cc(F)c(-c3c(F)c(F)c(F)c(F)c3F)cc21 [Compound 102, 2-2-oxo-3-(2,2,7-trifluoro-3-oxo-6-(perfluorophenyl)-2,3-dihydro-4H-benzo[b][1,4]oxazin-4-yl)propanoic acid] | < 1000 |
| COC(=O)CN1C(=O)C(F)(F)Oc2cc(F)c(-c3c(F)c(F)c(OC)c(F)c3F)cc21 [Compound 103, methyl 2-(2,2,7-trifluoro-3-oxo-6-(2,3,5,6-tetrafluoro-4-methoxyphenyl)-2,3-dihydro-4H-benzo[b][1,4]oxazin-4-yl)acetate] | < 100 |
| COc1c(F)c(F)c(-c2cc3c(cc2F)OC(F)(F)C(=O)N3CC(=O)O)c(F)c1F [Compound 104, 2-(2,2,7-trifluoro-3-oxo-6-(2,3,5,6-tetrafluoro-4-methoxyphenyl)-2,3-dihydro-4H-benzo[b][1,4]oxazin-4-yl)acetic acid] | < 1000 |
| COC(=O)c1ccccc1CCN1C(=O)C(F)(F)Oc2cc(F)c(-c3c(F)c(F)c(F)c(F)c3F)cc21 [Compound 105, methyl 2-(2-(2,2,7-trifluoro-3-oxo-6-(perfluorophenyl)-2,3-dihydro-4H-benzo[b][1,4]oxazin-4-yl)ethyl)benzoate] | < 100 |
| O=C(O)c1ccccc1CCN1C(=O)C(F)(F)Oc2cc(F)c(-c3c(F)c(F)c(F)c(F)c3F)cc21 [Compound 106, 2-(2-(2,2,7-trifluoro-3-oxo-6-(perfluorophenyl)-2,3-dihydro-4H-benzo[b][1,4]oxazin-4-yl)ethyl)benzoic acid] | < 100 |
| COC(=O)[C@@H]1CSCCN1C(=O)CN1C(=O)C(F)(F)Oc2cc(F)c(-c3c(F)c(F)c(F)c(F)c3F)cc21 [Compound 107, methyl (R)-4-(2-(2,2,7-trifluoro-3-oxo-6-(perfluorophenyl)-2,3-dihydro-4H-benzo[b][1,4]oxazin-4-yl)acetyl)thiomorpholine-3-carboxylate] | < 100 |
| O=C(O)[C@@H]1CSCCN1C(=O)CN1C(=O)C(F)(F)Oc2cc(F)c(-c3c(F)c(F)c(F)c(F)c3F)cc21 [Compound 108, (R)-4-(2-(2,2,7-trifluoro-3-oxo-6-(perfluorophenyl)-2,3-dihydro-4H-benzo[b][1,4]oxazin-4-yl)acetyl)thiomorpholine-3-carboxylic acid] | < 1000 |
| COC(=O)[C@@H]1CCCCN1C(=O)CN1C(=O)C(F)(F)Oc2cc(F)c(-c3c(F)c(F)c(F)c(F)c3F)cc21 [Compound 109, methyl (S)-1-(2-(2,2,7-trifluoro-3-oxo-6-(perfluorophenyl)-2,3-dihydro-4H-benzo[b][1,4]oxazin-4-yl)acetyl)piperidine-2-carboxylate] | < 100 |
| O=C(O)[C@@H]1CCCCN1C(=O)CN1C(=O)C(F)(F)Oc2cc(F)c(-c3c(F)c(F)c(F)c(F)c3F)cc21 [Compound 110, (S)-1-(2-(2,2,7-trifluoro-3-oxo-6-(perfluorophenyl)-2,3-dihydro-4H-benzo[b][1,4]oxazin-4-yl)acetyl)piperidine-2-carboxylic acid] | < 1000 |
| COC(=O)[C@H](C)N1C(=O)C(F)(F)Oc2cc(F)c(-c3c(F)c(F)c(OC)c(F)c3F)cc21 [Compound 111] | < 100 |
